For the assay, the target named is T1, S. cerevisiae SAM50 (N-terminally 3xFlag tagged) (S. cerevisiae) (UniProt P53969).
T1 sequence: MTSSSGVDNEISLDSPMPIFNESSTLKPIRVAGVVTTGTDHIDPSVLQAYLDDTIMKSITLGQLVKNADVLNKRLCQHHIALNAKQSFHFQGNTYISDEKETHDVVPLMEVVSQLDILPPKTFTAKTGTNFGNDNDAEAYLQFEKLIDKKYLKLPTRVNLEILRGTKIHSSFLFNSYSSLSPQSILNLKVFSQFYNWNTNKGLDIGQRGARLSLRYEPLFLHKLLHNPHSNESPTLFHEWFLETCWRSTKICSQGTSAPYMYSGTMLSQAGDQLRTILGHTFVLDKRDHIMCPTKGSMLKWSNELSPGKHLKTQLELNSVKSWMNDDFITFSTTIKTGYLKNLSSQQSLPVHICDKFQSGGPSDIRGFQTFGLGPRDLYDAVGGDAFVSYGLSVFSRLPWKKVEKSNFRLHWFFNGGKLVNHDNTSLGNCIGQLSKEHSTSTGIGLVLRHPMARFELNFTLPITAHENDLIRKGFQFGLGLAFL
Briefly: co-purification (anti-FLAG resin, then SEC); SAM35, Strep-SAM37 and 3xFlag-SAM50 co-transfected 1:1:1 in Expi293 cells; extracted with 1% GDN; bound to Flag resin, eluted with Flag peptide; Superdex 200 10/300 in buffer B with 0.02% GDN; reconstituted into proteoliposomes that were analysed by SDS-PAGE.

No constants are given. Whether binding was seen depends on the method and setting. Some results given as binding are weak or reduced against the parent protein; the word gives no strength. Where a sequence is shown, tags or fusion partners need not be part of it.

B1: S. cerevisiae SAM35 (no tag) (protein, UniProt P14693 1-329)
chain: MVSSFSVPMPVKRIFDTFPLQTYAAQTDKDEAVALEIQRRSYTFTERGGGSSELTVEGTYKLGVYNVFLEANTGAALATDPWCLFVQLALCQKNGLVLPTHSQEQTPSHTCNHEMLVLSRLSNPDEALPILVEGYKKRIIRSTVAISEIMRSRILDDAEQLMYYTLLDTVLYDCWITQIIFCASDAQFMELYSCQKLSGSIVTPLDVENSLLQKLSAKSLKISLTKRNKFQFRHREIVKSMQGVYHNHHNSVNQEQVLNVLFENSKQVLLGLKDMLKSDGQPTYLHLKIASYILCITNVKEPIKLKTFVENECKELVQFAQDTLKNFVQ
For the molecule B1, the binding entry is given as “binds”.

B2: S. cerevisiae SAM37 (N-terminally Strep tagged) (protein, UniProt P50110 1-327)
chain: MVKGSVHLWGKDGKASLISVDSIALVWFIKLCTSEEAKSMVAGLQIVFSNNTDLSSDGKLPVLILDNGTKVSGYVNIVQFLHKNICTSKYEKGTDYEEDLAIVRKKDRLLEYSLLNYVDVEISRLTDYQLFLNTKNYNEYTKKLFSKLLYFPMWYNTPLQLRSQARENCEEIIGSLTLEDDEEFVESKAMESASQLAQSKTFKIAHKNKIKGKQELQQVKYNLQFDNRLQSCVSNWLAARKKLDDSVILSSDLLFLANLYVQLGLPDGNRIRSKLEQTFGSELLNSMSNKIDDFVHRPSNNLEQRDPQFREQGNVVMSLYNLACKYI
Regarding B2, the binding entry was “binds”.

The record behind these values is doi:10.1101/2023.09.01.555937.
